Test [1] addresses flag-tagged Eif4a2^FL (mouse) (UniProt P10630). The experiment in a line: affinity purification with mass spectrometry.
Test [2] concerns the target flag-tagged Eif4a2^PTC (mouse). In words: affinity purification with mass spectrometry.

The chains behind the UniProt entries cited, without tags or fusion partners.
UniProt P10630: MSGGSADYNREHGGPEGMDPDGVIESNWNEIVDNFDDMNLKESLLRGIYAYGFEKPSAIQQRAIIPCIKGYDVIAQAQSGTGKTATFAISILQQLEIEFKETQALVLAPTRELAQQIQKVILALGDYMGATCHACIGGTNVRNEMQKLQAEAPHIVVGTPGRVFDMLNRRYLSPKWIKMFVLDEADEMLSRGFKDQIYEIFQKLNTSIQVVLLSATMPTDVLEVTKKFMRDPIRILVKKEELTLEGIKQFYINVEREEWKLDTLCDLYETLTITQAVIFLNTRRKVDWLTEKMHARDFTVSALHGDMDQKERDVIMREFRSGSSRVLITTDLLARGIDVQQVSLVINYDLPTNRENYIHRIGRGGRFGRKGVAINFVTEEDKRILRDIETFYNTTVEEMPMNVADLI

These are yes or no findings as the source states them, for the method shown. In cells and extracts the contact can be indirect. These calls come from enrichment with a bait or labelling near it, and not all partners need be listed.

B1: Smg7 (protein, UniProt Q5RJH6 1-1138)
chain: MSLQSAQYLRQAEVLKAEMTDSKLGPAEVWTSRQALQDLYQKMLVTDLEYALDKKVEQDLWNHAFKNQITTLQGQAKNRANPNRSEVQANLSLFLEAASGFYTQLLQELCTVFNVDLPCRVKSSQLGIISNKQTHSSTIVKPQSSSCSYICQHCLVHLGDIARYRNQTSQAESYYRHAAQLVPSNGQPYNQLAILASSKGDHLTTIFYYCRSIAVKFPFPAASTNLQKALSKALESRDELKTKWGVSDFIKAFIKFHGHVYLSKSLEKLSPLREKLEEQFKRLLFQKAFNSQQLVHVTVINLFQLHHLRDFSNETEQHSYSQDEQLCWTQLLALFMSFLGILCKCPLQNDSQESNNAYPLPAVKVSMDWLRLRPRVFQEAVVDERQYIWPWLISLLNSFHPREDDLSNTNATPLPEEFELQGFLALRPSFRNLDFSKGHQGITGDKEGQQRRIRQQRLISIGKWIADNQPRLIQCENEVGKLLFITEIPELILEDPSEAKENLILQETSVVESLATDGSPGLKSVLSTGRNPSNSCDSGEKPVVTFKENIKPREVNQGRSFPPKEVKSQTELRKTPVSEARKTPVTQTPSQTSNSQFIPIHHPGAFPPLPSRPGFPPPTYVIPPPVAFSMGSGYTFPAGVSVPGTFLQSTAHSPAGNQVQAGKQSHIPYSQQRPSGPGPMNQGPQQSQPPSQPPLTSLPAQPTAQSTSQLQVQALAQQQQSPTKVIPALGKSPPHHSGFQQYQQADASKQLWNPPQVQSPLGKIMPVKQSYYLQTQDPIKLFEPSLQPPVIQQQPLEKKMKPFPMEPYNHNPSEVKVPEFYWDSSYSMADNRAVMAQQPNMDRRSKRSPGVFRPEQDPVPRMPFEDPKSSPLLPPDLLKSLAALEEEEELIFSNPPDLYPALLGPLASLPGRSLFKSLLEKPSELMSHSSSFLSLTGFSVNQERYPNSSMFNEVYGKNLTTSSKAELNPSVASQETSLYSLFEGTPWSPSLPASSDHSTPASQSPHSSNPSSLPSSPPTHNHNSAPFSNFGPIGTPDNRDRRPADRWKTDKPAMGGFGVDYLSATSSSESSWHQASTPSGTWTGHGPSMEDSSAVLMESLKSIWSSSMMHPGPSALEQLLMQQKQKQQRGQGAMNPPH
Consider B1, for which the binding entry in test [1] and in test [2] was “binds” throughout.

B2: Eif4enif1 (protein, UniProt Q9EST3 1-983)
chain: MEKSVAETENGDAFLELKKLPTSKSPHRYTKEELLDIKERPYSKQRPSCLSEKYDSDGVWDPEKWHASLYPASGRSSPVESLKKESESDRPSLVRRIADPRERVKEDDLDVVLSPQRRSFGGGCHVTAAVSSRRSGSPLEKDSDGLRLLGGRRIGSGRIISARAFEKDHRLSDKDLRDLRDRDRERDYKDKRFRREFGDSKRVFGERRRNDSYTEEEPEWFSAGPTSQSETIELTGFDDKILEEDHKGRKRTRRRTASVKEGIVECNGGVAEEDEVEVILAQEPSADQEVPRDVILPEQSPGEFDFNEFFNLDKVPCLASMIEDVLGEGSVSASRFSRWFSNPSRSGSRSSSLGSTPHEELERLAGLEQAVLSPGQNSGNYFAPIPSEDHAENKVDILEMLQKAKVDLKPLLSSLSANKEKLKESSHSGVVLSVEEVEAGLKGLKVDQQMKNSTPFMAEHLEETLSAASSNRQLKKDGDMTAFNKLVNTMKASGTLPTQPKVSRNVESHLLAPAEIPGQPVSKNILQELLGQPVQRPASSNLLSGLMGSLEATASLLSQRAPSPPMSQVFRTQAASADYLHPRIPSPIGFPSGPQQLLGDPFQGMRKPMSPVSAQMSQLELQQAALEGLALPHDLAVQTAPFYQPGFSKPQVDRTRDGLRNRQQRMSKSPAPMHGGNSSSPAPAASITSMLSPSFTPTSVIRKMYESREKTKEEMAPGMVVPGDGKEDTQKTSEENLLSSNPIPNTDQDSSTTNPKLSTLQRSSCSTPLSQTSRYTKEQDYRPKTAGRKTPTLASPVPGTPFLRPTHQVPLVPHVPIVRPAHQLHPGLVQRLIAQGVHPQHLPSLLQAGVLPPGIDMAPLQGLSGPLLGQPLYPLVSAASHPLLNPRPGTPLHLAVMQQQLQRSVLHPPGSSSQAAAISVQTPQNVPSRSGMPHMHSQLEHRTSQRSSSPVGLAKWFGSDVLQQPLPSMPTKVISVDELEYRQ
B2: the binding entry in test [1] and in test [2] was “binds” throughout.

These data come from paper doi:10.1101/2020.07.07.180133.
